The other results are listed elsewhere or left out.
What follows are targets tested with COc1ccc(Cn2ccc3ccc(C(=O)NO)cc32)cc1 (assay: dose-dependent thermal stabilisation call (2D-TPP, DLPTP, 10% FDR) (binary (1 = stabilised)); higher = stabilised by the compound). Details: system: HL-60 intact cells; concentration range 0.04-10 µM.

By UniProt entry, the sequences of proteins in these tests, tags left out. Where a name states a change or a piece, a line headed by the entry shows the natural chain unless it says otherwise.
UniProt Q8N9N8: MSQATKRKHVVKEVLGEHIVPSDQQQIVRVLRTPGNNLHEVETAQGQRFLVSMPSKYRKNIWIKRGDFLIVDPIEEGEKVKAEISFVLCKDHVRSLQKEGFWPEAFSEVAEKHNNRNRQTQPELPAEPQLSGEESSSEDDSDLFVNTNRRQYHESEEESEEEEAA
UniProt O43768: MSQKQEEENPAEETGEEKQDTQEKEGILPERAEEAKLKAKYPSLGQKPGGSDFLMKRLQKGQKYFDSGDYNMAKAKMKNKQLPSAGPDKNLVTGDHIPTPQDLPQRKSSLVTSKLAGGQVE
UniProt O95905: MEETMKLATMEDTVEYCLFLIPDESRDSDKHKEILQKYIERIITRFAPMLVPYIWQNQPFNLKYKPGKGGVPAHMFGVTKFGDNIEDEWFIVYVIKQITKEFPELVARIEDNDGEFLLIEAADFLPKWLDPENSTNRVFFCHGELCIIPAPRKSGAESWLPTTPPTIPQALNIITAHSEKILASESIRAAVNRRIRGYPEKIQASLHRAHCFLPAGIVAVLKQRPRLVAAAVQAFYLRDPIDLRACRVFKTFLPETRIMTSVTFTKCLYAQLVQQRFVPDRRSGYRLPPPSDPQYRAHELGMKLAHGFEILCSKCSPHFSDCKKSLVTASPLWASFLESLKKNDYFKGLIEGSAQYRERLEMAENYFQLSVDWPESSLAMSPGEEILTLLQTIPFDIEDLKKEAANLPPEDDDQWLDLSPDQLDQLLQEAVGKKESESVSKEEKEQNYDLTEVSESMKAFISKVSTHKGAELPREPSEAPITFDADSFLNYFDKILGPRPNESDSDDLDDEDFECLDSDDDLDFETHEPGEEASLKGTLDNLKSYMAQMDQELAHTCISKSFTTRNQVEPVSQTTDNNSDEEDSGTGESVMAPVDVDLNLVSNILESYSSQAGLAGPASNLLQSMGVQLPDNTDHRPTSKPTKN
UniProt O00115: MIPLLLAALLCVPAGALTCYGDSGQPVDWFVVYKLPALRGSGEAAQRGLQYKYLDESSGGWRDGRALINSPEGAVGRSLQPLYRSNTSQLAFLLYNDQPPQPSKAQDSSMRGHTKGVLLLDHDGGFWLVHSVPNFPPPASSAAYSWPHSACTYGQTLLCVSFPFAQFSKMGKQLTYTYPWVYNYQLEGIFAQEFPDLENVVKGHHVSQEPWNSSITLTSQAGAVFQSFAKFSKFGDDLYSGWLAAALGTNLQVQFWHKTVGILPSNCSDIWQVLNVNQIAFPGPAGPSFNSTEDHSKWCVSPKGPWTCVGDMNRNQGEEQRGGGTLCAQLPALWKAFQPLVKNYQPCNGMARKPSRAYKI
UniProt O75061: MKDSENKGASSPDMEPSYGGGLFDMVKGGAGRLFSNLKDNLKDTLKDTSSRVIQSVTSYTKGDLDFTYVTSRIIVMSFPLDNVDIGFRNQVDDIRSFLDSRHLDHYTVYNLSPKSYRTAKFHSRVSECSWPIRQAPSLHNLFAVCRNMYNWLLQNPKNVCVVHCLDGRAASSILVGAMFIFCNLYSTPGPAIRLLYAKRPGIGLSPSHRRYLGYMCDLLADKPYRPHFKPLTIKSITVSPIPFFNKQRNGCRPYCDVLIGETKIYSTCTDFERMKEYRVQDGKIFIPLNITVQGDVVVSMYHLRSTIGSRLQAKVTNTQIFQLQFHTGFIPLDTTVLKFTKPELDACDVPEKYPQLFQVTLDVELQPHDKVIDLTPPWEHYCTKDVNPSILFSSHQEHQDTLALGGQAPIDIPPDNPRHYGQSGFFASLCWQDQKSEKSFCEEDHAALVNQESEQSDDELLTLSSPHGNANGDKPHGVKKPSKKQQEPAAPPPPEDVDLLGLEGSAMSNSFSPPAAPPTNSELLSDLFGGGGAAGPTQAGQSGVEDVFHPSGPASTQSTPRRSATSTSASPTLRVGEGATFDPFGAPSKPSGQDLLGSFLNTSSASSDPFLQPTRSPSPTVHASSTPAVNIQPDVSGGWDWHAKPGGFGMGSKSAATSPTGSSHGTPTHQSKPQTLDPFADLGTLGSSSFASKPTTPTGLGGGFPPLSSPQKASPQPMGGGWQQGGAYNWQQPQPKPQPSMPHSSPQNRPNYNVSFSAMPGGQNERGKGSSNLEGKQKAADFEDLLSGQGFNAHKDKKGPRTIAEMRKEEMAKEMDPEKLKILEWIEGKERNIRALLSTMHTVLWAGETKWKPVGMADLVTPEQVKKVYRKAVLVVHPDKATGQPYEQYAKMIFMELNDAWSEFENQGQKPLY
UniProt Q9Y3R5: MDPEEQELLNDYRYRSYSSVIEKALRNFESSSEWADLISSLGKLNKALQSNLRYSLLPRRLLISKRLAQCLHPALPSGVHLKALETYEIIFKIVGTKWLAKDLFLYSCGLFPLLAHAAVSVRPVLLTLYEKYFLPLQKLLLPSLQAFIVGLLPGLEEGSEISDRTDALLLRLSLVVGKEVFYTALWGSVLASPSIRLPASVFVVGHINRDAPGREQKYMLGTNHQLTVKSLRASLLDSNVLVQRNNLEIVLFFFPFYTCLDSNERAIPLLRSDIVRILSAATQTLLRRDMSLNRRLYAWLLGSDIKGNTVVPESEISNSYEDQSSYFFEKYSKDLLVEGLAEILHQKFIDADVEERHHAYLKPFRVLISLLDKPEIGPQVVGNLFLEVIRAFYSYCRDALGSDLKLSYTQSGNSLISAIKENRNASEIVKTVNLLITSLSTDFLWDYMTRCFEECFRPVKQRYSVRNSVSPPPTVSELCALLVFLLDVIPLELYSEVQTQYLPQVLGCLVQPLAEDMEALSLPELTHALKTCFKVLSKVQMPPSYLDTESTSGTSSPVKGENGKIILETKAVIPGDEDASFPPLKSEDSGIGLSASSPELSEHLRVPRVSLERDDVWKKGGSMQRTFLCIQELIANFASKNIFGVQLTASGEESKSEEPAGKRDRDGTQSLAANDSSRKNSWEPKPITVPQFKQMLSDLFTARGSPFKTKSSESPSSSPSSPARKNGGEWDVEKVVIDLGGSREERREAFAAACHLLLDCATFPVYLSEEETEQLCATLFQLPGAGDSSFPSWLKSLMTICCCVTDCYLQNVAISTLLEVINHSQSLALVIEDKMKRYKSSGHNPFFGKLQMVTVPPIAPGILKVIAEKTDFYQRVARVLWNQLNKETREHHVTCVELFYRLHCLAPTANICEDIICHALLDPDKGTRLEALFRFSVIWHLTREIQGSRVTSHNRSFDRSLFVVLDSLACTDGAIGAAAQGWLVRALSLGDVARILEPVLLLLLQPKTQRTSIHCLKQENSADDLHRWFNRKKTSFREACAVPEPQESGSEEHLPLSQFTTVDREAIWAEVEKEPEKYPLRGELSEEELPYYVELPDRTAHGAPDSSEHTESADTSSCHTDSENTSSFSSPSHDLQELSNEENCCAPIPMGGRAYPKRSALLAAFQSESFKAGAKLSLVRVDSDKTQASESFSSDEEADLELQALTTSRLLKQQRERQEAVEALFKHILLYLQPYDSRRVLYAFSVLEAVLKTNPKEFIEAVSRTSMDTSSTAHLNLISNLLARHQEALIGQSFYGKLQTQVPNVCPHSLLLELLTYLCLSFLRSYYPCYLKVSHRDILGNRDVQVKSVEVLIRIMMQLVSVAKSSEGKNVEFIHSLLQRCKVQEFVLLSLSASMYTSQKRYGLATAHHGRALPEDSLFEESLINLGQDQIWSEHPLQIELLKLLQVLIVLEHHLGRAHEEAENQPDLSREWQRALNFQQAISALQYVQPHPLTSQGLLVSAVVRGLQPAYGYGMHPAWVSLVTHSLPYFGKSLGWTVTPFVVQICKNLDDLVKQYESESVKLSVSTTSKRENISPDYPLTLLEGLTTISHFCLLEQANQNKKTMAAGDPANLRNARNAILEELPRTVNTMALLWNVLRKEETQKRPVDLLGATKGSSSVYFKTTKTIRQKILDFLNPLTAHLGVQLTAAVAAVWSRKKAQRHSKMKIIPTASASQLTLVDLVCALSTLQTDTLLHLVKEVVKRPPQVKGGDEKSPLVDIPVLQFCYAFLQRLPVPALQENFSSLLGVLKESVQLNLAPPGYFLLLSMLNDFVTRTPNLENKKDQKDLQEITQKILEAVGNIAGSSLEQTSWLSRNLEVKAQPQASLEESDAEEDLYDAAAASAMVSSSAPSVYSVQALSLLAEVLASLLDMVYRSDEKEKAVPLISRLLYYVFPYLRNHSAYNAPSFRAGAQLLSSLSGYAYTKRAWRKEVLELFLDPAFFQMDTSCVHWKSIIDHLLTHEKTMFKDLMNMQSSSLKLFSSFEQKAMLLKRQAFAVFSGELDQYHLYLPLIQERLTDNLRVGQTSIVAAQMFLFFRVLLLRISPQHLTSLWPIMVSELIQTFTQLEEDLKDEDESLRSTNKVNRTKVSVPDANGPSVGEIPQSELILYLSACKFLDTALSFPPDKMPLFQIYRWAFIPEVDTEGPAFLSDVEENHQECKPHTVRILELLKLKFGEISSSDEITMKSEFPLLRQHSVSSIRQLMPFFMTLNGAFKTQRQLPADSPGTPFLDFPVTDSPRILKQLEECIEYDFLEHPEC
UniProt P10768: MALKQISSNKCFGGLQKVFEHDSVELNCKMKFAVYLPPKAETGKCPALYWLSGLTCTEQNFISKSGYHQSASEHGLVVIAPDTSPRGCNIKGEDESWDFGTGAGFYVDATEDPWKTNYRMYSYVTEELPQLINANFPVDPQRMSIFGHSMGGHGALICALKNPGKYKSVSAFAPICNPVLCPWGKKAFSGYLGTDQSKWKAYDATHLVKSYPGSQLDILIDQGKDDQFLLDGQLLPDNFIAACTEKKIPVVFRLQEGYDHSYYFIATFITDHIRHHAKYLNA
UniProt Q8TEA8: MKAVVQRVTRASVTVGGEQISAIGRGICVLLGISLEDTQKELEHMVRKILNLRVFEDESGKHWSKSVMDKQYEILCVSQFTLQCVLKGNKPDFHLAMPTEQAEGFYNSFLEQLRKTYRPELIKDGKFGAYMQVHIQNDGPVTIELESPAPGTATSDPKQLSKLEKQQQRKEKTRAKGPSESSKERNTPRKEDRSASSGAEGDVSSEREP
UniProt Q8WXX5: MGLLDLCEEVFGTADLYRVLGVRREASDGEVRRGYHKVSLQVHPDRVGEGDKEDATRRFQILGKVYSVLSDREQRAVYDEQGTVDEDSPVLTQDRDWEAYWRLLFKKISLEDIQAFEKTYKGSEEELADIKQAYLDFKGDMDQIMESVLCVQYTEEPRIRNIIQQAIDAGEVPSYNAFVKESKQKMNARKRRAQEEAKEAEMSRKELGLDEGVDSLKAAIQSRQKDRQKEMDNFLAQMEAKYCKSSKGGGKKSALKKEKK
UniProt O00559: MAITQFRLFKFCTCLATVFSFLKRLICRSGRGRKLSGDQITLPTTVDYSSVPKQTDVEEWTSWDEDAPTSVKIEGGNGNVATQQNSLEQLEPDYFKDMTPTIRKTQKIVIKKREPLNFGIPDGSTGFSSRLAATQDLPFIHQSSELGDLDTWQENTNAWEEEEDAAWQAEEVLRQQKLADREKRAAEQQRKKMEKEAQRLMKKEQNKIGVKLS
UniProt P11171, whole entry: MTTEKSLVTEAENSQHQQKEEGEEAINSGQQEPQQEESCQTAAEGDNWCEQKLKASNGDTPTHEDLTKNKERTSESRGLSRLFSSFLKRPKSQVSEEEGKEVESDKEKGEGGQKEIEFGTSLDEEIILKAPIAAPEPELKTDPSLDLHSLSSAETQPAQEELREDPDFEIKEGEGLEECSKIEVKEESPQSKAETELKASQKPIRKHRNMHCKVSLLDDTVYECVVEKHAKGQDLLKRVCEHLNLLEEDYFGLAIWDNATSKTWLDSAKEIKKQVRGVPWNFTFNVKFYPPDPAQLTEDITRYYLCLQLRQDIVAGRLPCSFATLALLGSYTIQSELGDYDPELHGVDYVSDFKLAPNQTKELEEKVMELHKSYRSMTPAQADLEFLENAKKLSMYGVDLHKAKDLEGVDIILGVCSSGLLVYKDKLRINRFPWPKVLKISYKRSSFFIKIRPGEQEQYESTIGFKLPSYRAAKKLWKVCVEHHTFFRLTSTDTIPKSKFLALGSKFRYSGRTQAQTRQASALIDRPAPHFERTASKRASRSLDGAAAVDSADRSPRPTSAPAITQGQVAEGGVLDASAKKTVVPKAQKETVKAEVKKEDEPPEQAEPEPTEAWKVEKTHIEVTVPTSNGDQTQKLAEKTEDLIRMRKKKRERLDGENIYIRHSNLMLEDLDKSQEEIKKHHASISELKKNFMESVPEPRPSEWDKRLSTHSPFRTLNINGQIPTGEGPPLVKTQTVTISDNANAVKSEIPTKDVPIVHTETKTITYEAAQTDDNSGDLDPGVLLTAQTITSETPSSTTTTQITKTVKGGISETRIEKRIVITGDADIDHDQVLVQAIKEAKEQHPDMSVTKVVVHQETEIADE
UniProt Q9H5J4: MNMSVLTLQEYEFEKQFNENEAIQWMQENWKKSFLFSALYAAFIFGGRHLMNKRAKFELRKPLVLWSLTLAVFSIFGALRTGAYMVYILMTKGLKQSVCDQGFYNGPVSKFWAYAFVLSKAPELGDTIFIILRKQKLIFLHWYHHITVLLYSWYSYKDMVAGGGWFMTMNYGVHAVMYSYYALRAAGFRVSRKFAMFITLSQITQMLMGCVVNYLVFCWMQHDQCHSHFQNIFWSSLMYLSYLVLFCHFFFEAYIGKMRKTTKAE

Target | dose-dependent thermal stabilisation call
DNAJB2 (UniProt P25686) | inactive: 0
ELP3 (UniProt Q9H9T3) | inactive: 0
ERAP1 (UniProt Q9NZ08) | inactive: 0
EIF3K (UniProt Q9UBQ5) | inactive: 0
ERC1 (UniProt Q8IUD2) | inactive: 0
EIF1AD (UniProt Q8N9N8) | inactive: 0
DNAJC17 (UniProt Q9NVM6) | inactive: 0
ERCC6 | inactive: 0
DKFZP434B0335 | inactive: 0
ERP29 (UniProt P30040) | inactive: 0
ENSA (UniProt O43768) | inactive: 0
DOM3Z (UniProt O77932) | inactive: 0
ECD (UniProt O95905) | inactive: 0
EEA1 (UniProt Q15075) | inactive: 0
DNASE2 (UniProt O00115) | inactive: 0
DYSFIP1 (UniProt Q86WC6) | inactive: 0
DNAJC6 (UniProt O75061) | inactive: 0
DYNC2LI1 (UniProt Q8TCX1) | inactive: 0
DOPEY2 (UniProt Q9Y3R5) | inactive: 0

Random excerpt: two entries already listed.
Target | dose-dependent thermal stabilisation call
DNAJB2 (UniProt P25686) | inactive: 0
DOPEY2 (UniProt Q9Y3R5) | inactive: 0

More entries follow:

Target | dose-dependent thermal stabilisation call
ESD (UniProt P10768) | inactive: 0
DLST (UniProt P36957) | inactive: 0
EIF2B1 (UniProt Q14232) | inactive: 0
DYNC1H1 (UniProt Q14204) | inactive: 0
DTD1 (UniProt Q8TEA8) | inactive: 0
ERCC2 (UniProt P18074) | inactive: 0
EP300 (UniProt Q09472) | inactive: 0
DNAJA1 (UniProt P31689) | inactive: 0
ELP2 (UniProt Q6IA86) | inactive: 0
DNAJC9 (UniProt Q8WXX5) | inactive: 0
DIAPH2 (UniProt O60879) | inactive: 0
EIF3E (UniProt P60228) | inactive: 0
DICER1 (UniProt Q9UPY3) | inactive: 0
DPF2 (UniProt Q92785) | inactive: 0
EBAG9 (UniProt O00559) | inactive: 0
DSN1 (UniProt Q9H410) | inactive: 0
EPB41 (UniProt P11171) | inactive: 0
ELOVL6 (UniProt Q9H5J4) | inactive: 0
